In the supplement of paper PMC10849652:
The other results are listed elsewhere or left out.

Amino acid sequences for entries named in this document (tags omitted). A change or cut given only in a name is not applied to a line headed by its entry.
UniProt Q8NF50: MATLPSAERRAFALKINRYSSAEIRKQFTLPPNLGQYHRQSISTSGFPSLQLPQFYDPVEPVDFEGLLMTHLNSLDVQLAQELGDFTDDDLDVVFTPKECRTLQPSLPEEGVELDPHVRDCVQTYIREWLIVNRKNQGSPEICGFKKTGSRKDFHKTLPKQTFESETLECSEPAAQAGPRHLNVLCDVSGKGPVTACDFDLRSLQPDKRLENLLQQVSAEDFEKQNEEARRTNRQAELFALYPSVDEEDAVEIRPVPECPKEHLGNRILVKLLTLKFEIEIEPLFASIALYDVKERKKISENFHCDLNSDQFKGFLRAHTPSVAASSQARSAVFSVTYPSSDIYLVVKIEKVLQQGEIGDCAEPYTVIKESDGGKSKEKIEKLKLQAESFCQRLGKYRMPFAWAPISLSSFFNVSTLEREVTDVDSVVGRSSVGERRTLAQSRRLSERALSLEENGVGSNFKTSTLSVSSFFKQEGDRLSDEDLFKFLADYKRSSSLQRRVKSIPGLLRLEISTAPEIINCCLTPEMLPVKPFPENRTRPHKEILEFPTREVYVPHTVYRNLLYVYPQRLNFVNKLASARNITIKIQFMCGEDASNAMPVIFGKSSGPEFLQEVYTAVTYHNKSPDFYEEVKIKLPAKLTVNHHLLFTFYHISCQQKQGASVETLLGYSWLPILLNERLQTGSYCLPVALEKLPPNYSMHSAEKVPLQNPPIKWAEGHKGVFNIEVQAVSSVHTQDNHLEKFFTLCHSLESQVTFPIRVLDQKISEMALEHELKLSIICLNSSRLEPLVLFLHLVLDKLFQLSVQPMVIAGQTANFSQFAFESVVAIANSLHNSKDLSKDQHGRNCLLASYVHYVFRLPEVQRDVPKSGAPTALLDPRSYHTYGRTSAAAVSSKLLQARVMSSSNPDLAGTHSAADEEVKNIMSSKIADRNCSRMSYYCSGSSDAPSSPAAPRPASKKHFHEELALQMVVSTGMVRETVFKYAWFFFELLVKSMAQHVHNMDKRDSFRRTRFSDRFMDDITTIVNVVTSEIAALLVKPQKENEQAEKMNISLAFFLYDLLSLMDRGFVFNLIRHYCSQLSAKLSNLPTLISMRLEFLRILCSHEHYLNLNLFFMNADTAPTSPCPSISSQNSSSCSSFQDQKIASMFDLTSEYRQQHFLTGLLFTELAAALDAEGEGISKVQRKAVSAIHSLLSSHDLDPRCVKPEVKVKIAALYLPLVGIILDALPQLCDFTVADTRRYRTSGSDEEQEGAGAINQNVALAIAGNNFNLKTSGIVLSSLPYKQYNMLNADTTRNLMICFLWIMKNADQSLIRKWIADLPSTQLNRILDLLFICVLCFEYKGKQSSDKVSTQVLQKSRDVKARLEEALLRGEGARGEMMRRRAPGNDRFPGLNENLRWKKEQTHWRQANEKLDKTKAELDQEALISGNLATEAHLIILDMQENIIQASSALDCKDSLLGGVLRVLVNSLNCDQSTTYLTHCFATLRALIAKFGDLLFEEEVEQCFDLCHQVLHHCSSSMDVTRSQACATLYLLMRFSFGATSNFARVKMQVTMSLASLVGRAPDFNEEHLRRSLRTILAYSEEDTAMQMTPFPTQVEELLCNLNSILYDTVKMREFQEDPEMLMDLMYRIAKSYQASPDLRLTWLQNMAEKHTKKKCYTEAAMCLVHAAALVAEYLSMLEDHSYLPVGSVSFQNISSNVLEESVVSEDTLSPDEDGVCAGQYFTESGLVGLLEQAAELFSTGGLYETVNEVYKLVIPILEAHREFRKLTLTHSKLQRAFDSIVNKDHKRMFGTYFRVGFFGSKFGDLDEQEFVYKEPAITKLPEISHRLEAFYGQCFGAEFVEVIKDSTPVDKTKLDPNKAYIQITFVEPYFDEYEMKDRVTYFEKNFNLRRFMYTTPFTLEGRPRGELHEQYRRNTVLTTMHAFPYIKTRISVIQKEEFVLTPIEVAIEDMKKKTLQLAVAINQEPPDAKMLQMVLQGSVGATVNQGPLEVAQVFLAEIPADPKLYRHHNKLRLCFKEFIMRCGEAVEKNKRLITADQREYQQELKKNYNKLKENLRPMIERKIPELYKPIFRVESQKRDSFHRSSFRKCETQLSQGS
UniProt Q14126: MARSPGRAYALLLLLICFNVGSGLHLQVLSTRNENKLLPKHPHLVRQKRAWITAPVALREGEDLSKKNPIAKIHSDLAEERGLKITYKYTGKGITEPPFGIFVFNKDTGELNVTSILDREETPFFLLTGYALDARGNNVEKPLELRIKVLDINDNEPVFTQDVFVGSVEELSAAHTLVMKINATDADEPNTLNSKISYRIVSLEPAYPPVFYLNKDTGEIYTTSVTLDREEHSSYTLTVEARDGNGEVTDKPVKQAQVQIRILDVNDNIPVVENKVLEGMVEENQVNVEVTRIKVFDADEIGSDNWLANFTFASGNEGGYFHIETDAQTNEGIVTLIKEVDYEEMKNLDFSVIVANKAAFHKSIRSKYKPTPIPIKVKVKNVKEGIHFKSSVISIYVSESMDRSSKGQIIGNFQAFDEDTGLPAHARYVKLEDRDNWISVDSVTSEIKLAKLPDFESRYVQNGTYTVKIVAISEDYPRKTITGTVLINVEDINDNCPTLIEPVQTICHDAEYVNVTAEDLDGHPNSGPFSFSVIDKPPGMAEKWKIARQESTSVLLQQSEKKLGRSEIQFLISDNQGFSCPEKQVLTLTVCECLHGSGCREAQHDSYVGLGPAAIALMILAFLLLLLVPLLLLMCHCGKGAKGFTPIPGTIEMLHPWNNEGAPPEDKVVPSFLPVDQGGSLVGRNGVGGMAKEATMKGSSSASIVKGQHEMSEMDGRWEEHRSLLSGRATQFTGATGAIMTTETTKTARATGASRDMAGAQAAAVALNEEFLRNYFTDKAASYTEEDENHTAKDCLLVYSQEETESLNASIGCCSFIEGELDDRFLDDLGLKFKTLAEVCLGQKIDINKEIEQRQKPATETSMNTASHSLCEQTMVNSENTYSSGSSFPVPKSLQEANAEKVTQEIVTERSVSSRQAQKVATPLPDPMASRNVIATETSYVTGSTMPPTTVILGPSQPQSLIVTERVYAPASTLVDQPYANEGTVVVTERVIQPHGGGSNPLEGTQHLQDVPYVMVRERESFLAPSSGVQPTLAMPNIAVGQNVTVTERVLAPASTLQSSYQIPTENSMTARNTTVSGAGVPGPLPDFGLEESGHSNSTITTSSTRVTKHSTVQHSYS
UniProt O75937: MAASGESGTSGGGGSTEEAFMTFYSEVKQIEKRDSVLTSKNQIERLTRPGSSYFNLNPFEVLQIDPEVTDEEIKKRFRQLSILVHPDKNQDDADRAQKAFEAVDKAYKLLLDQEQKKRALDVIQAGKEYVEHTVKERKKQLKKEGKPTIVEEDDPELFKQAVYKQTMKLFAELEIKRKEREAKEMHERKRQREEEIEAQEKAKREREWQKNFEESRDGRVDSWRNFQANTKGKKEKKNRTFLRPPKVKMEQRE
UniProt Q96EV8: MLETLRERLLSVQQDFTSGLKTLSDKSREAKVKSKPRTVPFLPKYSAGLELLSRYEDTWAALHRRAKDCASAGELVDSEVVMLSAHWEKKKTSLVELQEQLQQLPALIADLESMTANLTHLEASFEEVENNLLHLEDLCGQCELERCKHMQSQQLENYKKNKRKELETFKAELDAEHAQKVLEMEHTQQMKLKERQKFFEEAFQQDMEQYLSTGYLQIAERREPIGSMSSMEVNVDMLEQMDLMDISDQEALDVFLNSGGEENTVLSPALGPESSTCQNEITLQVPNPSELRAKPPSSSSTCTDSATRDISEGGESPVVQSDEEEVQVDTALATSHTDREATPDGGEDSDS
UniProt Q96F86: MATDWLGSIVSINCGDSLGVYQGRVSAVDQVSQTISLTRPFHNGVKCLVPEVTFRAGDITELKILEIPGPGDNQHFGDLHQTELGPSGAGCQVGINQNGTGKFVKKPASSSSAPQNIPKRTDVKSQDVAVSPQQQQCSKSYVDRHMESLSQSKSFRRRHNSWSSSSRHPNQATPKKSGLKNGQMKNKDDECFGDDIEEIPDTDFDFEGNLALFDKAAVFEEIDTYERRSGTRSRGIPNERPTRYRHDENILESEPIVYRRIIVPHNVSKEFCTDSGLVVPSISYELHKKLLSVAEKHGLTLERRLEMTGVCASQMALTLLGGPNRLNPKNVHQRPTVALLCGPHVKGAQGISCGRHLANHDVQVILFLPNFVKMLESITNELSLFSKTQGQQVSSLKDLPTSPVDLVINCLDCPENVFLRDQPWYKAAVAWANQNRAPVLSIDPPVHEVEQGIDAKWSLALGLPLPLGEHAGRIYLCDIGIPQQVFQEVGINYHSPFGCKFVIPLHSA
UniProt P25685, whole entry, looked up: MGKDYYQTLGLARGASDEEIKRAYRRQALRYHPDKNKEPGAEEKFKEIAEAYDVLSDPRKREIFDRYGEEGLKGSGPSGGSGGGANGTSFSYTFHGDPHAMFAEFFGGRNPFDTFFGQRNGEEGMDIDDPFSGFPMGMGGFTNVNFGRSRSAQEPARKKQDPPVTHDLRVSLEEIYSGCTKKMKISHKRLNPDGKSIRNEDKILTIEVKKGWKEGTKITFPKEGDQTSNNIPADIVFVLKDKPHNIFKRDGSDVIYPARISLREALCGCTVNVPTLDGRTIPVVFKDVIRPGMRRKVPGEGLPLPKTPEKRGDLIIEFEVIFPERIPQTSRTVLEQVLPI
UniProt O43237, whole entry, looked up: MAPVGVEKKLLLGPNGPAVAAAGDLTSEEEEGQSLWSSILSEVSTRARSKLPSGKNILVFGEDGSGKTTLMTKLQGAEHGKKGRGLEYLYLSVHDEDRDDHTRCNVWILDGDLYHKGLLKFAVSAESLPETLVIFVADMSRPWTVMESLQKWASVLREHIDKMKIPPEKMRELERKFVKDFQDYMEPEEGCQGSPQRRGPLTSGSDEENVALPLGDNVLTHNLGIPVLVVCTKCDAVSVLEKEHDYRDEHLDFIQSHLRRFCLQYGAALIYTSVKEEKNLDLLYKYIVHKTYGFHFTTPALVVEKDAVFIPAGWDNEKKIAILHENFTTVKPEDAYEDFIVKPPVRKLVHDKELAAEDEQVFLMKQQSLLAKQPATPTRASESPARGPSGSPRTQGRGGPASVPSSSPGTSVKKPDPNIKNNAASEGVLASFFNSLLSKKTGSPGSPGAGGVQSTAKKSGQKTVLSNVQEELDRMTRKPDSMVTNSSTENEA
UniProt Q5QJE6: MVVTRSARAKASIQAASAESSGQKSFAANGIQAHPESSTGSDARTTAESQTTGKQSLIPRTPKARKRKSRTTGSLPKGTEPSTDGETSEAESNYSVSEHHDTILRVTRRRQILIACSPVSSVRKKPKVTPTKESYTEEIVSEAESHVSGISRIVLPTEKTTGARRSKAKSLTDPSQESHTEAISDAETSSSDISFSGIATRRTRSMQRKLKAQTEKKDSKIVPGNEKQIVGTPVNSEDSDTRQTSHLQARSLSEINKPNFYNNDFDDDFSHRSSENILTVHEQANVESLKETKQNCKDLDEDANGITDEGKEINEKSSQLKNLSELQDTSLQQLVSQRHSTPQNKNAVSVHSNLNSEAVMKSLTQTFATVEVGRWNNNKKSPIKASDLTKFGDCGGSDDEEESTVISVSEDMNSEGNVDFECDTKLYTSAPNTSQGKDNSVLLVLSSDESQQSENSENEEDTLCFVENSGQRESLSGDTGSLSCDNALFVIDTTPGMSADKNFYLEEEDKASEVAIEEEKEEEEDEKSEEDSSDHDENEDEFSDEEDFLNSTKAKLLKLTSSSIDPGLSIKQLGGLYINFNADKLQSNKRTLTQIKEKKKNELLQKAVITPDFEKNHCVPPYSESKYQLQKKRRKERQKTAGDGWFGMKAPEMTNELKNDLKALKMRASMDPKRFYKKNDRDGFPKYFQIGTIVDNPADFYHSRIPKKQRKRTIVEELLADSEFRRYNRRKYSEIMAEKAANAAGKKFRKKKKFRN
UniProt Q9NX74: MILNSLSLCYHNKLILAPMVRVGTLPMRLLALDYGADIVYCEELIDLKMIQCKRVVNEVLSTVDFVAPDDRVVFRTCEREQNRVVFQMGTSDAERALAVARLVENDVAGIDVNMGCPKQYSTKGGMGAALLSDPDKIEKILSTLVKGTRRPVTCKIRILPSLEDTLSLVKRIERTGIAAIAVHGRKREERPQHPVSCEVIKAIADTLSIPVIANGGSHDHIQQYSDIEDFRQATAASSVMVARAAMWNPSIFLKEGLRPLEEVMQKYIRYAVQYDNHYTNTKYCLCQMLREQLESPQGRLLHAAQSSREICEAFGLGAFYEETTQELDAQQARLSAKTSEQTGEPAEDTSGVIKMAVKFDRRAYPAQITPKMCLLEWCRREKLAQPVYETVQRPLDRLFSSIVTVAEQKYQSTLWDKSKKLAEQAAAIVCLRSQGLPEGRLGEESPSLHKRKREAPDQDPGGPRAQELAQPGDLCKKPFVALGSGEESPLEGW

Tests used:
Assay in all cases: log2 fold change, soluble protein after heating vs DMSO (PISA); higher = thermal stabilisation; K562 cells, 10 uM, 30 min; active = over 0.2 and 3.5 SD of the protein, either way, in both replicates (recomputed)
[1] = compound: NC(=O)Nc1cc(-c2cccc(F)c2)sc1C(=O)N[C@H]1CCCNC1
How it was run: (§1)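 Quantification of soluble protein used TMTpro 16plex LC-MS/MS, with channel sums equalised. Samples were the supernatant after 21,000xg for 90 min of pooled aliquots from K562 cells (2×10^6 cells/mL) treated with 10 μM compound for 30 min, heated for 3 min over 48°C-58°C, and extracted in PBS with 0.5% NP-40 at 4°C. Values, from duplicates, describe thermal stability against control samples on a log2 fold-change scale.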

[2] = compound: NC(=O)c1cnc(N[C@@H]2CCCC[C@@H]2N)nc1Nc1cccc(-n2nccn2)c1
How it was run: as §1

[3] = compound: NC1(c2ccc(-c3nc4ccn5c(=O)[nH]nc5c4cc3-c3ccccc3)cc2)CCC1
How it was run: as §1

[4] = compound: NCC(=O)Nc1ccc(-n2nc(C(F)(F)F)cc2-c2ccc3c(ccc4ccccc43)c2)cc1
How it was run: as §1

entinostat = compound: Nc1ccccc1NC(=O)c1ccc(CNC(=O)OCc2cccnc2)cc1 [entinostat]
How it was run: as §1

vorinostat = compound: O=C(CCCCCCC(=O)Nc1ccccc1)NO [vorinostat]
How it was run: as §1

citarinostat = compound: O=C(CCCCCCNC(=O)c1cnc(N(c2ccccc2)c2ccccc2Cl)nc1)NO [citarinostat]
How it was run: as §1

silmitasertib = compound: O=C(O)c1ccc2c(c1)nc(Nc1cccc(Cl)c1)c1ccncc12 [silmitasertib]
How it was run: as §1

[5] = compound: O=C1NC(=O)C(c2cnc3ccccn23)=C1c1cn2c3c(cc(F)cc13)CN(C(=O)N1CCCCC1)CC2
How it was run: as §1

[6] = compound: c1cc(OCCN2CCCCC2)cc(-c2n[nH]c3ccc(-c4nnc[nH]4)cc23)c1
How it was run: as §1

entospletinib = compound: c1cn2cc(-c3ccc4cn[nH]c4c3)nc(Nc3ccc(N4CCOCC4)cc3)c2n1 [entospletinib]
How it was run: as §1

Measured: log2 fold change

DOCK8 (UniProt Q8NF50)
inactive: [1] -0.088 | [2] 0.073 | [3] 0.461 | [4] 0.036 | entinostat 0.079 | vorinostat 0.031 | citarinostat 0.064 | silmitasertib 0.254 | [5] -0.12 | [6] 0.07

DYRK1A isoform 2 (UniProt Q13627)
inactive: [2] -0.034 | [3] -0.115 | [4] -0.064 | entinostat 0.028 | vorinostat 0.056 | citarinostat 0 | [5] -0.029
active: [1] -0.225 | silmitasertib -0.292

DNM2 (UniProt P50570)
inactive: [1] -0.019 | [2] -0.037 | [3] -0.153 | [4] -0.023 | entinostat 0.005 | vorinostat 0.03 | citarinostat 0.051 | silmitasertib -0.054 | [5] 0.008 | [6] -0.014

DSG2 (UniProt Q14126)
inactive: [1] -0.065 | [2] -0.015 | [3] -0.024 | [4] 0.013 | entinostat -0.061 | vorinostat -0.004 | citarinostat 0.009 | silmitasertib -0.006 | [5] -0.001 | [6] -0.052 | entospletinib 0.018

DNAJC8 (UniProt O75937)
inactive: [1] -0.008 | [2] -0.041 | [3] -0.043 | [4] -0.084 | entinostat 0.031 | vorinostat 0.009 | citarinostat 0.038 | silmitasertib 0.022 | [5] -0.053 | [6] -0.033 | entospletinib -0.043

DTNBP1 (UniProt Q96EV8)
inactive: [1] -0.022 | [2] -0.011 | [3] -0.038 | [4] -0.063 | entinostat 0.033 | vorinostat 0.091 | citarinostat -0.001 | silmitasertib -0.013 | [5] -0.032 | [6] -0.042

DNAJC13 (UniProt O75165)
inactive: [1] 0.019 | [2] -0.051 | [3] -0.02 | [4] 0.004 | entinostat 0.012 | vorinostat 0.071 | citarinostat 0.019 | silmitasertib 0.049 | [5] 0.037 | [6] -0.112 | entospletinib -0.078

DNAJC1 (UniProt Q96KC8)
inactive: [1] 0.013 | [2] -0.055 | [3] -0.082 | [4] -0.08 | entinostat 0.042 | vorinostat 0.106 | citarinostat 0.017 | silmitasertib 0.01 | [5] -0.016 | [6] -0.083

EDC3 (UniProt Q96F86)
inactive: [1] -0.162 | [2] -0.229 | [3] -0.119 | [4] -0.075 | entinostat 0.07 | vorinostat 0.154 | citarinostat 0.042 | silmitasertib -0.047 | [5] -0.068 | [6] -0.152

DNAJB12 (UniProt Q9NXW2)
inactive: [1] -0.03 | [2] -0.018 | [3] -0.048 | [4] -0.029 | entinostat 0.001 | vorinostat 0.027 | citarinostat 0.027 | silmitasertib 0.079 | [5] -0.038 | [6] 0.002

EEA1 (UniProt Q15075)
inactive: [1] 0.013 | [2] -0.014 | [3] 0.006 | [4] -0.014 | entinostat -0.023 | vorinostat 0.004 | citarinostat -0.001 | silmitasertib 0.015 | [5] 0.006 | [6] -0.043

DNAJB1 (UniProt P25685)
inactive: [1] -0.006 | [2] -0.041 | [3] -0.09 | [4] -0.083 | entinostat 0.013 | vorinostat 0.034 | citarinostat 0.044 | silmitasertib 0.011 | [5] -0.005 | [6] -0.04

DYNC1LI2 (UniProt O43237)
inactive: [1] 0.093 | [2] -0.021 | [3] 0.206 | [4] -0.075 | entinostat -0.026 | vorinostat 0.075 | citarinostat -0.101 | silmitasertib 0.214 | [5] 0.158 | [6] -0.108

DNTTIP2 (UniProt Q5QJE6)
inactive: [1] 0.14 | [2] -0.054 | [3] 0.155 | [4] 0.029 | entinostat -0.03 | vorinostat 0.045 | citarinostat 0.016 | silmitasertib 0.102 | [5] -0.028 | [6] -0.095

DUS2 (UniProt Q9NX74)
inactive: [1] 0.051 | [2] -0.066 | [3] -0.091 | [4] -0.004 | entinostat 0.008 | vorinostat 0.041 | citarinostat 0.124 | silmitasertib 0.092 | [6] 0.038
active: [5] -0.424

Two successive entries already listed:
DYNC1LI2 (UniProt O43237)
inactive: [1] 0.093 | [2] -0.021 | [3] 0.206 | [4] -0.075 | entinostat -0.026 | vorinostat 0.075 | citarinostat -0.101 | silmitasertib 0.214 | [5] 0.158 | [6] -0.108

DNTTIP2 (UniProt Q5QJE6)
inactive: [1] 0.14 | [2] -0.054 | [3] 0.155 | [4] 0.029 | entinostat -0.03 | vorinostat 0.045 | citarinostat 0.016 | silmitasertib 0.102 | [5] -0.028 | [6] -0.095
